Experimental findings from article PMC12303078 are described below.

By UniProt entry, the sequences of proteins in these tests, tags left out. Where a name states a change or a piece, a line headed by the entry shows the natural chain unless it says otherwise.
UniProt A2AWL7: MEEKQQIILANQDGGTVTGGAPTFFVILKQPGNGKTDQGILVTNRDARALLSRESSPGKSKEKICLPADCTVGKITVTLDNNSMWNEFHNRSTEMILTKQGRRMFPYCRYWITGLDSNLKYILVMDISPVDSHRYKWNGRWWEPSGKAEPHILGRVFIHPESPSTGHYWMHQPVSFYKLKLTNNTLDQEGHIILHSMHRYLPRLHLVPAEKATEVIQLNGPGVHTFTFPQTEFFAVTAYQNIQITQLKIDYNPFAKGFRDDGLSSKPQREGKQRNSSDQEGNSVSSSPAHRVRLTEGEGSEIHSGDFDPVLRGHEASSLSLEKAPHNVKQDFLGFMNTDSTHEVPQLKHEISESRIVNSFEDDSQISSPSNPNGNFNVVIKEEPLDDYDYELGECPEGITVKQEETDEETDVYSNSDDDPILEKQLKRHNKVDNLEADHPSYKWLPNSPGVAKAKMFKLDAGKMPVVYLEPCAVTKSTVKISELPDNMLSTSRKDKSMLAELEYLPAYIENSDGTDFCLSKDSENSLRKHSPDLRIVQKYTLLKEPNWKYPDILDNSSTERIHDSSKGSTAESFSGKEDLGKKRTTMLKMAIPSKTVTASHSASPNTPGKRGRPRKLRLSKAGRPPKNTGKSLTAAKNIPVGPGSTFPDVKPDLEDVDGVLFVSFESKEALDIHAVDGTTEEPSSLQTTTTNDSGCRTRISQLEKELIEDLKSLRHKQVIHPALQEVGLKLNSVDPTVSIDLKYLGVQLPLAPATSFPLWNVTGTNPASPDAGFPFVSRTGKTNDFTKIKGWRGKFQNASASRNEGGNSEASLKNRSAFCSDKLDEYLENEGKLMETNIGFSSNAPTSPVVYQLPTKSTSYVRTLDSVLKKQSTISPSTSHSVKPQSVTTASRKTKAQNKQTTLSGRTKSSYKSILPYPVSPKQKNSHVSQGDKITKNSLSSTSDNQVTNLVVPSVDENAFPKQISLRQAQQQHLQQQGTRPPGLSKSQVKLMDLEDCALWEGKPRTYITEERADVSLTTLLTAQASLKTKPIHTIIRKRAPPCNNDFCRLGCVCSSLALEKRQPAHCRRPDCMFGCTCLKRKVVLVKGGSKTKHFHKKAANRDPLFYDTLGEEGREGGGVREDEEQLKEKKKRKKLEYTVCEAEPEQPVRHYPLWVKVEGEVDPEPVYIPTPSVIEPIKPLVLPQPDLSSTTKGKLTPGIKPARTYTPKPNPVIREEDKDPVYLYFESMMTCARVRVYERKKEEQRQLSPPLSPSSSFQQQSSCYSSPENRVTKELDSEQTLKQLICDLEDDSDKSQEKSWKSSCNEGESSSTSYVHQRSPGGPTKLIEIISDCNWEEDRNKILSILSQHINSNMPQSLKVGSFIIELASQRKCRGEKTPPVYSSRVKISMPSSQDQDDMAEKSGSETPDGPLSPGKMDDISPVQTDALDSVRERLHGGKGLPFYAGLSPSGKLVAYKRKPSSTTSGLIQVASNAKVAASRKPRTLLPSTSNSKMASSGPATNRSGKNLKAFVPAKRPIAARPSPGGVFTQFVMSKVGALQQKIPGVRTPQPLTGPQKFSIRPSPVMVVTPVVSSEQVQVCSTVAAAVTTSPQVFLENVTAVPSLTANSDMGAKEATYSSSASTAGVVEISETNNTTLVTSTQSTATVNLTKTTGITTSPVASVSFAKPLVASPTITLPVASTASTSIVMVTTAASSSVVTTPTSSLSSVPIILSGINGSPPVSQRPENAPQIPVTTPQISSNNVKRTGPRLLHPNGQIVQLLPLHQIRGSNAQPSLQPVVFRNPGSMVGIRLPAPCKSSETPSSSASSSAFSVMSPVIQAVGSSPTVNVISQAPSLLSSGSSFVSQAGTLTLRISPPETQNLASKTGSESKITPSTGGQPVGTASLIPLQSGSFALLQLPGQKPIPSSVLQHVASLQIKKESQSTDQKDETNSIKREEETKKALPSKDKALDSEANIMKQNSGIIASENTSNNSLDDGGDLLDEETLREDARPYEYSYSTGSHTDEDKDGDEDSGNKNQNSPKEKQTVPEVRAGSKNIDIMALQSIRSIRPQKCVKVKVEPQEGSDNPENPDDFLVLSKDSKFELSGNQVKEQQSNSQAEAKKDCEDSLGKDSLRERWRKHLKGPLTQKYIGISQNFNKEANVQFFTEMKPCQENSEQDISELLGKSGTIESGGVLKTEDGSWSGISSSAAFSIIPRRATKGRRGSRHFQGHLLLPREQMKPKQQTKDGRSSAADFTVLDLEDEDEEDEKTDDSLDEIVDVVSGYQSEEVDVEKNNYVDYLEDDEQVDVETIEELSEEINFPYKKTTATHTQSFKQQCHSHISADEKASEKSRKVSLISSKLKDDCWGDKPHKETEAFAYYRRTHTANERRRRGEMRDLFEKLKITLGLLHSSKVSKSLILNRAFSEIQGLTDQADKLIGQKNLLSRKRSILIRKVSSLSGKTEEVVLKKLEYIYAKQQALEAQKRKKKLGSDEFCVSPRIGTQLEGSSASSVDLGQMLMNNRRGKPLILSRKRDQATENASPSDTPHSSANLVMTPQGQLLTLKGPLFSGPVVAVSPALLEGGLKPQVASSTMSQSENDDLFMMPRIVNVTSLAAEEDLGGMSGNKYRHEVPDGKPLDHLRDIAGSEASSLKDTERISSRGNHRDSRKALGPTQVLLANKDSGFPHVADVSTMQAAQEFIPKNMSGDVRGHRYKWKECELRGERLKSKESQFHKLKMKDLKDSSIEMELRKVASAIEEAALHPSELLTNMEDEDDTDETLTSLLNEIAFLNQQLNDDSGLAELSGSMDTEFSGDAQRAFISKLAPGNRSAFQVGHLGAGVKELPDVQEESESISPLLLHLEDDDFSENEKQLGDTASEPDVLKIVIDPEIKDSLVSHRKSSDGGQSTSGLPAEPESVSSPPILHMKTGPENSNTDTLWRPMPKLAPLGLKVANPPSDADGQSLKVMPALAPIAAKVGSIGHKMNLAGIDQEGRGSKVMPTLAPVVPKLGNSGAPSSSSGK

Test [1] deals with MGAΔFAM (mouse (endogenous in ESCs)) (UniProt A2AWL7). Put plainly: co-IP; anti-MGA antibody on Dynabeads with anti-rabbit IgG, overnight 4°C; nuclear extract / lysate (10 mM Tris-HCl pH8.0, 1 mM EDTA, 140 mM NaCl, 1% NP-40) of wild-type, parental, MGAΔFAM or Zmym2-null mouse ESCs; with or without a mixture of DNase and RNase; western blot. In general terms: A western blot detects proteins with antibodies after separation by electrophoresis.

Test [2] has as its target 3×Flag-tagged carboxy-terminal domain of MGA, FAM deleted (UniProt A2AWL7). Briefly: co-IP; HEK293FT cells co-transfected with Flag-tagged MGA C-terminal portion (wild type or mutants) and HA-tagged ATF7IP; whole-cell extracts 48 h after transfection; Dynabeads with anti-mouse IgG antibody for immunoprecipitation; western blot.

No constants are given. Whether binding was seen depends on the method and setting. Binding seen in cells or lysates may run through a third protein. For part of these data: Binding calls can cover weak binding; strength is not graded here. For part of these data: Where a sequence is shown, tags or fusion partners need not be part of it.

B1: PCGF6 (protein, UniProt Q99NA9 1-353)
chain: MDEAETDATENKRASEAKRASAMPPPPPPPPPISPPALIPAPAAGEEGPASLGQAGAAGCSRSRPPALEPERSLGRLRGRFEDYDEELEEEEEMEEEEEEEEEMSHFSLRLESGRADSEDEEERLINLVELTPYILCSICKGYLIDATTITECLHTFCKSCIVRHFYYSNRCPKCNIVVHQTQPLYNIRLDRQLQDIVYKLVINLEEREKKQMHDFYKERGLEVPKPAAPQPVPSSKGKTKKVLESVFRIPPELDMSLLLEFIGANEDTGHFKPLEKKFVRVSGEATIGHVEKFLRRKMGLDPACQVDIICGDHLLERYQTLREIRRAIGDTAMQDGLLVLHYGLVVSPLKIT
Turning to B1, in test [1], the binding result is recorded as “binds”.

B2: ATF7IP (protein, UniProt Q7TT18 1-1306)
chain: MDSVEEPQKKVFKARKTMRASDRQQLDAVHRVKGELLRADGKLLNGSHENGDLDPTSPLENTDCIQDREEVNGIDGICFQSEESTTEWKETPCMPNVAVKNKQEDLNSEALSPSITCDLSSRVTTEPGSGSPASDNPGCGTPVSDNPASDNPASDNPASDNPDSGDLAAGELATTVQATGDSACEEPPSSDPSSSDPTSSEPSSSEPTCSEPISGDPVSEEAASHDLVSGDSTCSEPVSGEPVSHEAASSEPATSEPASDEPVARVVAACELAPGESALDDCAPSGDSQSDEPPSSEDSLPRSVCSGLASGELTPGELSVEPATDTVKPSSSAVCEAGPDPDKTEPSSNNSDDCPGKSEDDEHLDQIQSKDSCDEGNKVNSNVVEKEEPLETHSAIICSDLPPENTTKIAEDPIAEPALEEEAISSSMEVDQSEKDEHKSPAEPVAAVSEDPAEEDKEDTVVDNTDSMETDEIIPILEKLAPTEDELSCFSKASLLPVETSQDLEDKMEGSFGSPSKQESSENLPKEAFLVLSDEEDLSCGKDESEAVAQSKMSTPEGEKSEKDGKAEEEERVPAEEQPPVRNEFSRRKRSKSEDMDSVESKRRRYMDEEYEAEFQVKITAKGDINQKLQKVIQWLLQEKLCALQCAVFDKTLAELKTRVEKIECNKRHKAVLTELQAKIARLTKRFGAAKDDLKKRQESPPNPPISPGKPANDTNSNNNMTYRNAGTVRQLLESKRNVSEGPPPSFQTPVNTVSSASHATSTAVVSSQPKLQTSATSGSLPAAPLLPAPSTATVVATTQVPSGTPQPTISLQPLPVILHVPVAVTSQPQLLQSHPGTLVTNQPSGNVEFISVQSQPTVSGLTKNPVSLPPLPNPTKPNIPSVPSPSSIQRNSSTTAAPLGTTLAVQAVPTAHSIVQATRTSLPTVGPSGLYSSSSSRGPIQMKIPISTFSPPSSAEQNSSATPRIVTENQTNKTVDSSINKKAADSTSQSGKASSSDSSGVIDLTMDDEESGTTQDPKKISPPSSSTVSTSQPMSRPLQPILPAPPLQPSGVPTSGPSQATIHVLPTAPTTVNVTHRPVTQVTTRLPVPRAPANHQVVYTTLPAPTTQAPLRGTVMQAPAVRQVNPQNSVTVRVPQTTTYVVNNGLTLGSAGPQLTVHHRPPQVHNEPPRPLHPAPLPEAPQPQRLPPEAASTSLPQKPHLKLARVQSQNGIVLSWSVLEVDRSCATVDSYHLYAYHEEPSATVPSQWKKIGEVKALPLPMACTLTQFVSGSKYYFAVRAKDIYGRFGPFCDPQSTDVISSSQNS
For B2, the binding result in test [1] is given as “binds”.

B3: HA-tagged ATF7IP (protein, UniProt Q7TT18 1-1306)
chain: B2 chain
Take B3: the binding result in test [2] is listed as “no binding”.
